# Source: PubChem BioAssay AID602196 (INSERM, 2012)
# Assay: 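Genes whose knock-down alters cisplatin killing of lung cancer cells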
# Cell system: human A549 lung cancer cells
# Knock-down reagent: siRNA pair against human genes
# Duration: 48 h transfection before cisplatin; time from cisplatin to read-out not stated
# Challenge: cisplatin at a dose killing half of control-siRNA cells; exact dose and duration not given
# Measured: 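Cisplatin cell death as a shift from the 50% death seen with control siRNA; siRNAs toxic or growth-blocking alone scored 0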
# Direction: two-siRNA summed score (-2 to +2): higher = both siRNAs protect from cisplatin killing; -2 means both sensitise; mean protection from cisplatin (shift in death) and protection from cisplatin (shift in death), siRNA C and protection from cisplatin (shift in death), siRNA D: higher = protection from cisplatin killing
# Call rule: 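siRNAs harmful alone (LDH or WST-1) get 0; others get +1 for less and -1 for more cisplatin killing; genes are active when the two siRNAs give the same sign, summing to ±2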
# Meaning of the calls: active = both siRNAs shift cisplatin killing the same way; inactive = no consistent shift, or siRNA harmful alone
# In all, the deposit lists about 23,000 reagents; this is an unselected part. In the full data, 455 (2%) are marked active. 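Active includes both protection and sensitisation; some change values fall well beyond the stated -50 to +50 range.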 A number with no mark means an inactive call. The record does not give: the amount of reagent.
gene,two-siRNA summed score (-2 to +2),mean protection from cisplatin (shift in death) (%),"protection from cisplatin (shift in death), siRNA C (%)","protection from cisplatin (shift in death), siRNA D (%)"
KCNJ5 (potassium inwardly rectifying channel subfamily J member 5),0,6.4,22,-9.3
TMEM204 (transmembrane protein 204),0,-3.5,-3,-4
LIX1 (limb and CNS expressed 1),0,-7.5,-15.3,0.4
EPB41L1 (erythrocyte membrane protein band 4.1 like 1),0,-10.9,-11.9,-9.8
PLTP (phospholipid transfer protein),-1,-36.6,-43,-30.2
BIN1 (bridging integrator 1),1,14.7,13.2,16.3
CAPN6 (calpain 6),0,-9.1,-9.3,-8.8
ESRP2 (epithelial splicing regulatory protein 2),-1,-11.5,0.1,-23
HJURP (Holliday junction recognition protein),-1,-12.1,-28.4,4.2
DLGAP1 (DLG associated protein 1),0,3.3,15.7,-9.1
PDZK1 (PDZ domain containing 1),1,12.1,11.4,12.8
BDP1 (BDP1 general transcription factor IIIB subunit),0,3.5,3.6,3.3
RBP7 (retinol binding protein 7),0,-2.6,-4.4,-0.9
LOC390508,0,2.9,-7.2,12.9
ARRDC4 (arrestin domain containing 4),0,-2,-0.2,-3.7
REEP4 (receptor accessory protein 4),1,19.6,35.8,3.3
ZNF404 (zinc finger protein 404),0,12.8,16.8,8.9
LOC253820,0,17.8,0.3,35.3
CHRNB3 (cholinergic receptor nicotinic beta 3 subunit),0,4.6,-0.6,9.8
S100A2 (S100 calcium binding protein A2),0,15.1,23.1,7.1
GPR20 (G protein-coupled receptor 20),0,7.4,7.5,7.4
DHRS1 (dehydrogenase/reductase 1),0,2.9,27.8,-21.9
LINC01949 (long independently transcribed non-coding RNA 1949),0,19.9,28.1,11.6

Single entries from above.
Value of PLTP (phospholipid transfer protein) under “protection from cisplatin (shift in death), siRNA D (%)”: -30.2
For “mean protection from cisplatin (shift in death) (%)”, PDZK1 (PDZ domain containing 1) is entered as 12.1
